Reference: US20060183733A1, “Treating microvasculature diseases with acetyl cholinesterase inhibitors” (priority 2005, published 2006)
Entries after “also recorded” stand apart in the source; their conditions may differ. For at least one compound, name, drawing or mass did not settle the structure.

Experiments:
[1] = tested on: patients with urinary retention; experiment: Patient case histories: urinary retention (voiding trials, post void residuals); details: a person
[2] = tested on: patients with Multiple Sclerosis; type: in vivo, human; details: galantamine 4 mg orally three times daily
From the text: The present invention provides an acetylcholinesterase inhibitor to increase the relative concentration of […] within the central nervous system to improve parasympathetic neural transmission and combat the features of M. S. that often present in a craniosacral distribution. Cranial symptoms include mental status changes, emotional lability as well as optic dysfunction and nystgmus. Cranial nerves that control extracular muscles are also affected. Cranial involvement can also manifest as swallowing problems with frank dysphagia. The sacral manifestations of parasympathic dysfunction relate to bowel and bladder control. The symptoms of spastic bladder, urinary retention and constipation are relieved by treatment with an Acetylcholinesterase inhibitor raising the concentrations of acetylcholine to enhance the neural transmission of the parasympathetic nervous system to facilitate normal bowel and bladder function. The craniosacral manifestations of M.S. are reflected in dysfunctional neural transmission associated with the parasympathetic nervous system and can be ameliorated or corrected by treatment with an acetylcholinesterase inhibitor. Improved blood flow within the vasovasorum of the myelin sheath/nerve is also considered useful in amelioration of MS symptoms. […]

[3] = tested on: patients with myofascial pain / fibromyalgia; experiment: Patient case histories: fibromyalgia / myofascial pain syndrome; type: in vivo, human
From the text: The present invention provides a method for treating fibromyalgia and myofascial pain syndrome by increasing tissue levels of acetylcholine. Acetylcholine is the neurotransmitter of the parasympathic nervous system. The inventive method increases the relative amount of parasympathetic transmission and thereby facilitates resolution of the pain areas and diminishes the need for narcotics and polypharmacy. The reduction in the use of narcotics, NSAIDs, and tricyclic antidepressants and other medications used for pain having their deleterious side effects is a major benefit. By administration of acetyl cholinesterase inhibitor, the relative concentrations of acetylcholine are increased and available to propagate the impulses of the parasympathic nervous systems and within the non-neuronal acetylcholine receptors diminishing pain and spasms. […] The influence of non-neuronal acetylcholine receptors affected by enhanced levels of acetylcholine produces a reduction in pro-inflammatory mediators and increased blood flow to the nerve fibers involved in pain transmission. […]

[4] = tested on: patients with peripheral vascular disease and diabetes mellitus; experiment: Patient case histories: microvascular disease / vascular insufficiency; type: in vivo, human; details: galantamine 4 mg twice daily titrated to 8 mg three times daily (a person)
From the text: In summary, vascular insufficiency from diabetes is associated with compromise of the microvascular circulation. Treatment with an effective dose of an acetylcholinesterase inhibitor raises the relative concentration of acetylcholine promoting vasodilitation of the microcirculation (end arterioles) through stimulation of neuronal and non-neuronal acetylcholine receptors in the intima of the blood vessels. The beneficial effects of promoting vasodilitation and enhanced tissue perfusion correcting the dystrophic changes and alleviating ischemic pain and ulcers is readily apparent in this series of patients.
The present invention provides a method for the medical management of peripheral vascular disease. The management of peripheral vascular disease with acetylcholinesterase inhibitor addresses the central dilemma in vascular perfusion of the lower extremities. By increasing the relative concentration of acetylcholine, the parasympthetic nervous system is enhanced, improving blood flow at the tissue level by relaxation of the small end arterioles and improving perfusion therefore decreasing vascular edema, enhancing resolution of trohpic ulcers and alleviating rest pain and claudication complaints. The parasympathetic nervous system controls vascular beds in the small arterioles and by increasing the available acetylcholine, dilatation occurs and blood flow improves. […]

[5] = tested on: patients with rheumatologic conditions (RA, SLE, PMR, polymyositis); experiment: Patient case histories: rheumatological conditions; type: in vivo, human
From the text: The use of an acetylcholinesterase inhibitor raises level of acetylcholine by inhibition of cholinesterase. The Increased levels of acetylcholine stimulate neuronal receptors of the parasympathetic nervous system and non-neuronal receptors associated with the intima of blood vessels and leukocytes. This dual effect of improving flow within the microvascular circulation and stabilization of leukocytes and their adhesion to the wall of blood vessel produces the anti-inflammatory effect that is observed with the use of an acetylcholinesterase inhibitor for treatment of rheumatologic diseases.

[6] = tested on: patients with phantom pain; experiment: Patient case histories: phantom pain following amputation; type: in vivo, human
From the text: The present invention further provides a method of treating phantom pain following amputation in both upper and lower extremities. “Phantom pain” is a phenomenon described following amputation of either an upper or lower extremity. The sensation is common following amputation and present with varying degrees of discomfort and debility. A patient with phantom pain is typically treated with antidepressants, Neurontin® (gabapeninand) narcotics to a varying degree. The use of acetylcholinesterase inhibitors decreases the need for narcotics and generally eliminates the need for poly pharmacy improving pain, enhancing wound healing and improved sleep pattern in amputee patients. The dose of acetylcholinesterase inhibitor is titrated to GI (gastrointestinal) tolerance with bowel movement consistency and frequency the determining factors. Treatment with acetylcholinesterase inhibitor increases the available acetylcholine which is the neurotransmitter responsible for activation of the parasysmpathic nervous system appear responsible for Noxious symptoms of phantom pain for discomfort. The present invention provides a method of treating phantom pain associated with amputation of either upper or lower extremity.

In the case of `COc1ccc2c3c1O[C@H]1C[C@@H](O)C=C[C@@]31CCN(C)C2` [galantamine], the pain complaints ([1]; galantamine 4 mg orally three times daily, diabetes, back and leg pain (case listed under Urinary Retention)) is reported as “improvement in their pain complaints”, the narcotic use ([1]; galantamine 8 mg orally three times daily, Oxycontin 30 mg three times daily on admission) is reported as “Oxycontin® was completely discontinued” and the “clinical outcome (bladder symptoms)” value [2] is reported as “improvement in their symptoms of bladder spasticity”. For the same compound, the “clinical outcome (pain, spasm, narcotic use)” value ([3]; galantamine 4 mg two to four times daily) was “improvement in neck plain complaints; also recorded: hamstring spasm resolved; also recorded: completely discontinued all narcotics; also recorded: better control of their pain symptoms; also recorded: complete resolution of their pain symptoms in their neck and back”, the “clinical outcome (pain, ambulation)” value ([3]; galantamine titrated to 8 mg three times daily) was “pain was improved sufficiently to allow discontinuation of NSAID's; also recorded: able to progress from a walker to a quad cane” and the “clinical outcome (vascular edema, ulcers)” value [4] was “vascular edema in the left leg improved dramatically within one month; also recorded: ulcers on the distal third of their left leg resolved over a two-month period; also recorded: charcot foot deformity was unchanged; also recorded: No new ulcer developed; also recorded: with return of signs or symptoms of vascular insufficiency”. For the same compound, the “clinical outcome (dysphagia, weakness)” value ([5]; galantamine 4 mg orally three times daily, polymyositis) was “prompt improvement in their dysphagia but persistent weakness”, the “clinical outcome (pain, swelling, strength)” value ([5]; galantamine titrated to 8 mg orally three times daily) was “decreased pain, warmth and swelling; also recorded: improvement in their back pain complaints; also recorded: decreased swelling and pain with improved range of motion; also recorded: improvement in their strength; also recorded: dyspnea was resolved and they became ambulatory with a walker” and the “clinical outcome (pain, sleep, narcotic use)” value ([6]; galantamine 4 mg three or four times daily) was “notable improvement in their pain and sleep pattern; also recorded: improved sleep and increased energy; also recorded: no return of the painful neuropathic pain or phantom discomfort; also recorded: improved sleep pattern, complete cessation of long acting narcotics; also recorded: dramatic improvement in sleep and phantom pain symptoms”. The “clinical outcome (pain)” value ([6]; galantamine 8 mg BID to TID) was “almost complete resolution of their pain; also recorded: complete resolution in their pain complaints; also recorded: without side effects or return of their painful symptoms”.
